Laboratory results reported in patent US20030162715A1.
These are yes or no findings as the source states them, for the method shown. In cells and extracts the contact can be indirect. Some results given as binding are weak or reduced against the parent protein; the word gives no strength. Tags and fused reporters may be left off the sequences shown.

Legend:
[1] = target: T1, activin B precursor, high molecular weight form of 48-55 kDa (from the activin betaB-myc construct) (human) (UniProt P09529); assay: co-immunoprecipitation from culture media of co-transfected 293 cells, Western blot
T1 sequence: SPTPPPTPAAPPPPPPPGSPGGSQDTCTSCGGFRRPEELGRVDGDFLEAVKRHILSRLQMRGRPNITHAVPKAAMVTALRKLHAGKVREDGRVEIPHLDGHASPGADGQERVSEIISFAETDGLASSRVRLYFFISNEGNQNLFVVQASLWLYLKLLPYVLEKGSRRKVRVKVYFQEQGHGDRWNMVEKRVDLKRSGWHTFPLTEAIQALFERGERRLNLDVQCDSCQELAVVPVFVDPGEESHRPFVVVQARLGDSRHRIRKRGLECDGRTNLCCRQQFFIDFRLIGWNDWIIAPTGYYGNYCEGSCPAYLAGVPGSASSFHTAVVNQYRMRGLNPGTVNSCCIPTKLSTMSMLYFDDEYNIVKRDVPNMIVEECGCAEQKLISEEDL

[2] = target: T2, activin B, secreted low molecular weight mature form (from the activin betaB-myc construct) (human) (UniProt P09529); assay: as above
T2 sequence: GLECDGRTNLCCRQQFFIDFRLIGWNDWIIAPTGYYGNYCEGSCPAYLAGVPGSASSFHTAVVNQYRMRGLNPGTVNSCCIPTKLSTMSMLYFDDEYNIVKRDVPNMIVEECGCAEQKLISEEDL

[3] = target: T1, activin B precursor, high molecular weight form of 48-55 kDa (from the activin betaB-myc construct) (human); assay: co-immunoprecipitation from lysates of co-transfected 293 cells, Western blot

Measured: binding

B1: C-terminal Flag-tagged FLRG (follistatin-3) (protein)
chain: MGSGNPAPGGVCWLQQGQEATCSLVLQTDVTRAECCASGNIDTAWSNLTHPGNKINLLGFLGLVHCLPCKDSCDGVECGPGKACRMLGGRPRCECAPDCSGLPARLQVCGSDGATYRDECELRAARCRGHPDLSVMYRGRCRKSCEHVVCPRPQSCVVDQTGSAHCVVCRAAPCPVPSSPGQELCGNNNVTYISSCHMRQATCFLGRSIGVRHAGSCAGTPEEPPGGESAEEEENFVDYKDDDDK
binds: all assays above
